Experimental data from paper doi:10.1101/700294.
These are yes or no findings as the source states them, for the method shown. Binding seen in cells or lysates may run through a third protein. Some binding calls cover weakened binding; strength is not graded here.

Amino acid sequences for entries named in this document (tags omitted).
UniProt O14746: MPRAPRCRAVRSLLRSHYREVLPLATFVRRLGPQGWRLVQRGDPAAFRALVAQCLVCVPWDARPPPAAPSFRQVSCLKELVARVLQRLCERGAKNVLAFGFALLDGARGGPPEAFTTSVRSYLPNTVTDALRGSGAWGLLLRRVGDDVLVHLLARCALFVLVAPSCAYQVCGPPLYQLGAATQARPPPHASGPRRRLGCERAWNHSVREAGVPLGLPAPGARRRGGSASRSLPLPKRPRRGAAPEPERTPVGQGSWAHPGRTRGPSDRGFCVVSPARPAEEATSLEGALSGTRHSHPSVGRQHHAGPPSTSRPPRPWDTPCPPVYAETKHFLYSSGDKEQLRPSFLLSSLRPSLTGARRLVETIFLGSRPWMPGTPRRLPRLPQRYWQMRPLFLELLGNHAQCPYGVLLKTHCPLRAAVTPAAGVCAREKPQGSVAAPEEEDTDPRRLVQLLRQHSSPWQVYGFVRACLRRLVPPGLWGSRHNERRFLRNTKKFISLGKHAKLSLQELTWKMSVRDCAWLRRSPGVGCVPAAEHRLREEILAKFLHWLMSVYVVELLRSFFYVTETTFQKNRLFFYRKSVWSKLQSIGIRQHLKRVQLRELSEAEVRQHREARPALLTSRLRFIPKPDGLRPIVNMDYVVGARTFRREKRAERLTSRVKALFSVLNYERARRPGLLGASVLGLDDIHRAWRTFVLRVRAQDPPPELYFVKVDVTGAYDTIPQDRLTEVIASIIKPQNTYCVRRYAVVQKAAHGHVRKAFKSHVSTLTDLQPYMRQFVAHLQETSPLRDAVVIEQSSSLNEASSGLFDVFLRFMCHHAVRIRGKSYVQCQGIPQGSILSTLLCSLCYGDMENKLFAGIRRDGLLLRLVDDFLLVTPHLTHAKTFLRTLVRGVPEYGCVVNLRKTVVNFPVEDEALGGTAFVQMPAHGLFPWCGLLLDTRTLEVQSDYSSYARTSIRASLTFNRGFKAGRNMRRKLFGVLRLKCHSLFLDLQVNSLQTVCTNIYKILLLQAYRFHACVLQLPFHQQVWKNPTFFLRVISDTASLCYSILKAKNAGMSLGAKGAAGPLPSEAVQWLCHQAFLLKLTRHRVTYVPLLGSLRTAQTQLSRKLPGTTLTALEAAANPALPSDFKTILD
UniProt Q9BUR4: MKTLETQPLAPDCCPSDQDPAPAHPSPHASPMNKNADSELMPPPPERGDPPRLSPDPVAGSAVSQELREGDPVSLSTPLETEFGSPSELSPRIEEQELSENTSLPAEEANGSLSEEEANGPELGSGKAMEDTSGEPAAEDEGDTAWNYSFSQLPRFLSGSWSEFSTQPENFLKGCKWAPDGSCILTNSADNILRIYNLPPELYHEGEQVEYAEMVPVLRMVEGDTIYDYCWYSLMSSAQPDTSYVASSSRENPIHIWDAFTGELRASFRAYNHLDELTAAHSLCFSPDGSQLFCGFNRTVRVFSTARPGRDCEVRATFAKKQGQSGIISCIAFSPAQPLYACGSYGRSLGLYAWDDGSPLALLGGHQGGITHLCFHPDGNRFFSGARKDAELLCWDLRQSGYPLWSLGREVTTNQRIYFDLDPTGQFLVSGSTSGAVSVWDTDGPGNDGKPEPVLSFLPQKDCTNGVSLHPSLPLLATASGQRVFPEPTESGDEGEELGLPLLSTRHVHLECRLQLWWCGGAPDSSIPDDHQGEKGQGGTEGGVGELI

What was measured:
[1] = biological target: 3xFLAG-HaloTag-TERT modified with biotin (human) (UniProt O14746); test: co-IP
[2] = biological target: 3xFLAG-TERT (telomerase reverse transcriptase) (human) (UniProt O14746); test: co-IP

| Molecule | binding [1] | binding [2] |
| --- | --- | --- |
| TCAB1 (from UniProt Q9BUR4 1-548) | binds | binds |
| dyskerin (protein, UniProt O60832 1-514) MADAEVIILPKKHKKKKERKSLPEEDVAEIQHAEEFLIKPESKVAKLDTSQWPLLLKNFDKLNVRTTHYTPLACGSNPLKREIGDYIRTGFINLDKPSNPSSHEVVAWIRRILRVEKTGHSGTLDPKVTGCLIVCIERATRLVKSQQSAGKEYVGIVRLHNAIEGGTQLSRALETLTGALFQRPPLIAAVKRQLRVRTIYESKMIEYDPERRLGIFWVSCEAGTYIRTLCVHLGLLLGVGGQMQELRRVRSGVMSEKDHMVTMHDVLDAQWLYDNHKDESYLRRVVYPLEKLLTSHKRLVMKDSAVNAICYGAKIMLPGVLRYEDGIEVNQEIVVITTKGEAICMAIALMTTAVISTCDHGIVAKIKRVIMERDTYPRKWGLGPKASQKKLMIKQGLLDKHGKPTDSTPATWKQEYVDYSESAKKEVVAEVVKAPQVVAEAAKTAKRKRESESESDETPPAAPQLIKKEKKKSKKDKKAKAGLESGAEPGDGDSDTTKKKKKKKKAKEVELVSE | binds | binds |
